# This is one part of the list. Shown are side measurements of this screen, not its main read-out; they come without a call. Most of these compounds were active or inconclusive in the main read-out, so they are no random draw. Words in brackets tell the shape of the fitted curve; partial curves, single points and poor fits give uncertain potencies.
# Assay: S16 Schwann cell PMP22 intronic element beta-lactamase assay (AID 624044)
# Conditions: S16 rat Schwann cells, PMP22 element beta-lactamase FRET, 24 h; measured here: 530 nm viability channel
# Outline: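 Beta-lactamase reporter under a PMP22 intronic regulatory element in stable S16 rat Schwann cells; 24 h compound exposure. 460 nm blue signal normalized between DMSO (0%) and potassium clavulanate, with 535 nm FRET tracking viability; curves classed by r2 and response.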
row,Compound,AC50
1,O=C(O)c1ccccc1-c1c2cc(Br)c(=O)c(Br)c-2oc2c(Br)c(O)c(Br)cc12,"15.8 µM [rising, partial curve]"
2,CC(C)(O)c1ccccc1CC[C@H](SCC1(CC(=O)O)CC1)c1cccc(/C=C/c2ccc3ccc(Cl)cc3n2)c1,"1 µM [falling, full curve]"
3,CO/N=C(/C(=O)N[C@@H]1C(=O)N2C(C(=O)O)=C(C[n+]3ccc(N)n3CCO)CS[C@H]12)c1csc(N)n1,"3.16 µM [falling, full curve]"
4,CCN(CC)CCC[C@H](C)Nc1c2ccc(Cl)cc2nc2ccc(OC)cc12,"15.8 µM [rising, partial curve]"
5,O=C(/C=C/c1ccccc1)OCc1ccccc1,"0.2 µM [falling, full curve, poor fit]"
6,CC(C)C(=O)OCC(=O)[C@@]12OC(C3CCCCC3)O[C@@H]1CC1C3CCC4=CC(=O)C=C[C@]4(C)C3[C@@H](O)C[C@@]12C (some centres not stated),"28.2 µM [rising, single point]"
7,O=C(O)c1ccccc1-c1c2ccc(=O)cc-2oc2cc(O)ccc12,"15.8 µM [rising, partial curve]"

# From PubChem BioAssay (NCATS)
